Consider eight targets from the supplement of paper PMC12819154, “High-throughput peptide-centric local stability assay extends protein–ligand identification to membrane proteins, tissues and bacteria” (Nature Structural & Molecular Biology, 2025).

Protein sequences, listed by entry. Tags and fused reporters are not part of them. Lines headed by an entry give the natural chain unless they say otherwise; changes in a name come on top.
UniProt Q9Y383: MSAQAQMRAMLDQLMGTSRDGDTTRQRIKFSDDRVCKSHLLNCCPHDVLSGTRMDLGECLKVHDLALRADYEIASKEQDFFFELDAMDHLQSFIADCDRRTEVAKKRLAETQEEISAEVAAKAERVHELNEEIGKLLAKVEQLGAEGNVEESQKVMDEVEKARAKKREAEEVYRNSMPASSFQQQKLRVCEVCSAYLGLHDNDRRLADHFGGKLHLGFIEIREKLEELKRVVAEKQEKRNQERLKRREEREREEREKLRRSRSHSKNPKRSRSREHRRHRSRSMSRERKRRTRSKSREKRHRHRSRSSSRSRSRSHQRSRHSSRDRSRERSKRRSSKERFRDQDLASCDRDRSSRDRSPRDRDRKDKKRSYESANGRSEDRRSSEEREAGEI
UniProt Q9UNL2: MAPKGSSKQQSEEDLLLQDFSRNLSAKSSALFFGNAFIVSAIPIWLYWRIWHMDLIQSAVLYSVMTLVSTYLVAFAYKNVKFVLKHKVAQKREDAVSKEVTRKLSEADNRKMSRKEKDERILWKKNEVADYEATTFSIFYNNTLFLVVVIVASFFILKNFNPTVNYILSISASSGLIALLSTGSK
UniProt Q9UNF1: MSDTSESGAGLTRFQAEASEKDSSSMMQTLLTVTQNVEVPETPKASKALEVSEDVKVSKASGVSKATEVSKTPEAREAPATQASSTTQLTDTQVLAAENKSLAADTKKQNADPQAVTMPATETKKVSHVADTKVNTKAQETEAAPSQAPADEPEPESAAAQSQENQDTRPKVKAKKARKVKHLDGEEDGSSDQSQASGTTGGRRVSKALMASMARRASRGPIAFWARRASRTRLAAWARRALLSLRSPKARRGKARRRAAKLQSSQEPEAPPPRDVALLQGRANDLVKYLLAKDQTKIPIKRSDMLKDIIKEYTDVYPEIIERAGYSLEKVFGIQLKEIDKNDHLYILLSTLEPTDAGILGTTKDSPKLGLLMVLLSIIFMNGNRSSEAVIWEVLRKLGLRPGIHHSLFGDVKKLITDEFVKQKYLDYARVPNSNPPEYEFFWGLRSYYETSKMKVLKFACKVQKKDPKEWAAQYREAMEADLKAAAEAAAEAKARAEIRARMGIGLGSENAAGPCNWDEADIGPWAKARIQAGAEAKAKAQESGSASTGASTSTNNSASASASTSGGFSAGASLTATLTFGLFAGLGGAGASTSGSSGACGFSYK
UniProt Q9UKX7: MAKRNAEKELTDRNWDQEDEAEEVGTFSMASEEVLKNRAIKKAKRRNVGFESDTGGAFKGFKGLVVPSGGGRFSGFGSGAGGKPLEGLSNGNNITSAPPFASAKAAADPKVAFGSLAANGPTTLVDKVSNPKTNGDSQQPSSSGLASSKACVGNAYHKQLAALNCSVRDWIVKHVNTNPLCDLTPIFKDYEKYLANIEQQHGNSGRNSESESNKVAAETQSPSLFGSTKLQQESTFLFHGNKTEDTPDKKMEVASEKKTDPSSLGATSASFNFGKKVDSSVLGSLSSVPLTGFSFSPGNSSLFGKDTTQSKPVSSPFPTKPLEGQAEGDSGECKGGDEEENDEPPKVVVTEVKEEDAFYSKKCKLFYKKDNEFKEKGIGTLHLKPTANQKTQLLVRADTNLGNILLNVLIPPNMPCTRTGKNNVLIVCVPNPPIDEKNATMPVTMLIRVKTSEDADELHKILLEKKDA
UniProt Q9Y2B5: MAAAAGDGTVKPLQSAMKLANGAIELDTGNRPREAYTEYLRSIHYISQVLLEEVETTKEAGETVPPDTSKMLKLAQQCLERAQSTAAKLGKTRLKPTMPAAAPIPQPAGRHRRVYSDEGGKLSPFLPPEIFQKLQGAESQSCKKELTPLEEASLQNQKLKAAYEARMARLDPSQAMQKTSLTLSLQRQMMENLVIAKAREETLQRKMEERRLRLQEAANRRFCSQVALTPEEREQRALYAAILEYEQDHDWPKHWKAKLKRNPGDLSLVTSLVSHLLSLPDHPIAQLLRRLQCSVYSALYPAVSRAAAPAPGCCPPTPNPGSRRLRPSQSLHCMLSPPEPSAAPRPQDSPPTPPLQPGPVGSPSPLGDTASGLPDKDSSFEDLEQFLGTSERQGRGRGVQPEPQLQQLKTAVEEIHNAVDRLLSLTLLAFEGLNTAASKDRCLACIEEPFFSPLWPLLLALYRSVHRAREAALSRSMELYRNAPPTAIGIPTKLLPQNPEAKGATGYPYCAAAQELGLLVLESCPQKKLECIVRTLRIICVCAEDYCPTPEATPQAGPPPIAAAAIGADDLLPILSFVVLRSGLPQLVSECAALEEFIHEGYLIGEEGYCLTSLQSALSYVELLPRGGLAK
UniProt Q9UMX0, whole entry: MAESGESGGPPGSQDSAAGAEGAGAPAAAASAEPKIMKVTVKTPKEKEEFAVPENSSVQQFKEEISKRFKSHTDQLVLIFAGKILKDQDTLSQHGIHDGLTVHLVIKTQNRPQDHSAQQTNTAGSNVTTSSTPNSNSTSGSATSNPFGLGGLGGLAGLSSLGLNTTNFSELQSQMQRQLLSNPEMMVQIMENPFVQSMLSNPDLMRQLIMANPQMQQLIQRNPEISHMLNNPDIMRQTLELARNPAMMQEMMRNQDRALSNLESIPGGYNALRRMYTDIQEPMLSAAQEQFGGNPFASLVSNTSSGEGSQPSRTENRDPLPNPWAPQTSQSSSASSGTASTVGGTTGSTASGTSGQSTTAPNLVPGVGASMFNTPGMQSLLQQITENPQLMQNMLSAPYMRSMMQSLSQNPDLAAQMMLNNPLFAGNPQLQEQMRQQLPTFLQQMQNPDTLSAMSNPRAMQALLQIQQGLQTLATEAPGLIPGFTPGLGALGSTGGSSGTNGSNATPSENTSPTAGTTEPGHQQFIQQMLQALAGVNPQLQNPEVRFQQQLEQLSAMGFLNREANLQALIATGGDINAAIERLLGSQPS
UniProt Q9UN81: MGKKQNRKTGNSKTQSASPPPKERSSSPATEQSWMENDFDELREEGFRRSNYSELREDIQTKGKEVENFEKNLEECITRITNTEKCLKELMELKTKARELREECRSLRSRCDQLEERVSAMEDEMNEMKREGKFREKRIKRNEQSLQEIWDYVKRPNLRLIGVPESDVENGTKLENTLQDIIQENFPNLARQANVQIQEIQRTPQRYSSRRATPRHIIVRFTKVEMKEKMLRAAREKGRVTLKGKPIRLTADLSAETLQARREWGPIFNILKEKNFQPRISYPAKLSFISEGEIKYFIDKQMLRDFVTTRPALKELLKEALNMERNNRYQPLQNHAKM
UniProt Q9UKA4: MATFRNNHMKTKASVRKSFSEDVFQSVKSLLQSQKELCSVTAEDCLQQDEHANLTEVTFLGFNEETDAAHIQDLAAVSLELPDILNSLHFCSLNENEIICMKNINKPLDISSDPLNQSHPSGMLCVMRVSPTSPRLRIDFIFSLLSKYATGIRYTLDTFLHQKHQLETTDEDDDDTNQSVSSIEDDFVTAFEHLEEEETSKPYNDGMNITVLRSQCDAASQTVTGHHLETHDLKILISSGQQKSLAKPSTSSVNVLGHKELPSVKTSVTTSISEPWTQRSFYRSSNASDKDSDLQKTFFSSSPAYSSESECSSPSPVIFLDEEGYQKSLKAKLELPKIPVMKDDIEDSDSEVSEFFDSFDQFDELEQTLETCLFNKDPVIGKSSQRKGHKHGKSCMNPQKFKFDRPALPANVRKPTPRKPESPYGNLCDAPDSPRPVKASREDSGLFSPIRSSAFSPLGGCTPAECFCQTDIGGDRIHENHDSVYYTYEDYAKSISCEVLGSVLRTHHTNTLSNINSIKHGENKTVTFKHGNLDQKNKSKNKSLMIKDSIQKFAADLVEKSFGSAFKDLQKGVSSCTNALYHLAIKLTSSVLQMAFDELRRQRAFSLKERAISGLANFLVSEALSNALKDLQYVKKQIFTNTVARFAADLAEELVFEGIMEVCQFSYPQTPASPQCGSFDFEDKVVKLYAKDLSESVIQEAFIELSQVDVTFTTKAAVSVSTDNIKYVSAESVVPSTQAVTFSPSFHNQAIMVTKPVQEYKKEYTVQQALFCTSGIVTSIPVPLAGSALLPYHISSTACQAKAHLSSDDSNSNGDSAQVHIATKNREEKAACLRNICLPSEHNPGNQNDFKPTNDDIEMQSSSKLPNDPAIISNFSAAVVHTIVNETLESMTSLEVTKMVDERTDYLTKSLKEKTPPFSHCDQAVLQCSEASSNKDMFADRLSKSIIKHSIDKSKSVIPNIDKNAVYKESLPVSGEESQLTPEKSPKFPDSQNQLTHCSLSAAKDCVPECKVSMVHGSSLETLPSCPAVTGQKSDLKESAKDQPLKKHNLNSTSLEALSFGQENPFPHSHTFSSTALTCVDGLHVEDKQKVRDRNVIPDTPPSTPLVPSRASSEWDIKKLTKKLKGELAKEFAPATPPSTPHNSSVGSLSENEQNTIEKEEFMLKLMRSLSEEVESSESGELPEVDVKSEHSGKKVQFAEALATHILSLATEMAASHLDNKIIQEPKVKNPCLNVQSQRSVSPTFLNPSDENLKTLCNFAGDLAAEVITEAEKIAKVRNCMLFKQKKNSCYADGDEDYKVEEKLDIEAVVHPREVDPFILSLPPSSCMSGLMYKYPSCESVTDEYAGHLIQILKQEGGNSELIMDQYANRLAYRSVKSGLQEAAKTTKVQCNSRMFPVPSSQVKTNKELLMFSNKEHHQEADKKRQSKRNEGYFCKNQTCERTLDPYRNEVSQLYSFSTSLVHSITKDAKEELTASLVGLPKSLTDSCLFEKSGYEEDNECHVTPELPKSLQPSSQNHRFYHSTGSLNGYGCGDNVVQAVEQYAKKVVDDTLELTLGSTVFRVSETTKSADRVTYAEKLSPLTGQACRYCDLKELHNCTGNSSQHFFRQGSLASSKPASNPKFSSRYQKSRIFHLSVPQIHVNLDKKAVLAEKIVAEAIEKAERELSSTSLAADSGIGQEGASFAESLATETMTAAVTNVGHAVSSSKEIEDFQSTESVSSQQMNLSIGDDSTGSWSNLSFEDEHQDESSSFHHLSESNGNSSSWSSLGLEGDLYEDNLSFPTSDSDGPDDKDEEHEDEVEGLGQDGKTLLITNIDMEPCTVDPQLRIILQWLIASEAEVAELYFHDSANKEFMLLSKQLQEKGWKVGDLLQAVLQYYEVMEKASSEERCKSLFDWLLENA

The list shows a part of the results. Most values lie at the level of the controls, where differences are scatter.

Compound in the experiment: CN[C@@H]1C[C@H]2O[C@@](C)([C@@H]1OC)n1c3ccccc3c3c4c(c5c6ccccc6n2c5c31)C(=O)NC4 [staurosporine]
The experiment can be described thus: log2 fold change of tryptic peptide abundance, ligand vs vehicle (limited proteolysis) (log2 ratio); higher = more trypsin-susceptible (destabilized). The following applies: ligand concentration: 20 uM; sample: K562 cleared lysate; digestion: 4 min, 22 C (HT-PELSA RT4min, Orbitrap Astral).
As for “LUC7L2 (peptide sequence: VMDEVEK, peptide start residue: 155) (UniProt Q9Y383)”, the log2 fold change was -0.356.

With “SSR3 (peptide sequence: QQSEEDLLLQDFSR, peptide start residue: 9) (UniProt Q9UNL2)”, the log2 fold change was 0.357.

Turning to “MAGED2 (peptide sequence: ALMASMAR, peptide start residue: 208) (UniProt Q9UNF1)”, the log2 fold change is -0.188.

Take “NUP50 (peptide sequence: LQQESTFLFHGNK, peptide start residue: 230) (UniProt Q9UKX7)”: the log2 fold change was -0.15.

On to “UniProt Q9Y2B5 (peptide sequence: QMMENLVIAK, peptide start residue: 188)”, for which the log2 fold change amounted to 0.461.

With “UBQLN1 (peptide sequence: NPEISHMLNNPDIMR, peptide start residue: 222) (UniProt Q9UMX0)”, the log2 fold change was -0.11.

As to “L1RE1 (peptide sequence: REWGPIFNILK, peptide start residue: 262) (UniProt Q9UN81)”, the log2 fold change is -0.467.

In the case of “AKAP11 (peptide sequence: SLQPSSQNHR, peptide start residue: 1510) (UniProt Q9UKA4)”, the log2 fold change was 0.295.
